Where two headings read alike, the source gives them in different places. No constants are given. Whether binding was seen depends on the method and setting. Binding seen in cells or lysates may run through a third protein. A yes stands for co-enrichment or nearness to the bait. Other partners may have been found.
Assays:
Assay in all cases: affinity purification with mass spectrometry; antibody (5 µg) crosslinked to Dynabeads Protein G; incubated with human LV myofilament-enriched protein lysate (200 µl of 2 µg/µl) 10 min at room temperature; washed seven times with TBS-T; eluted with 0.15% TFA; in-solution digestion, LC-MS/MS; immunoprecipitations for BAG3, HSP70 and HSPB8
[1] = target: T1, HSPB8 (human (endogenous in left ventricle tissue)) (UniProt Q9UJY1)
T1 sequence: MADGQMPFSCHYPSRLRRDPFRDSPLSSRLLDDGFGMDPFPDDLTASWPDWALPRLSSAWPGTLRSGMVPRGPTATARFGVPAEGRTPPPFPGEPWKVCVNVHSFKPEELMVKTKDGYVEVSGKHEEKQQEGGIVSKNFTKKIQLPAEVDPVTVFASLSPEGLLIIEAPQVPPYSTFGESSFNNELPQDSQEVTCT

Protein sequences, listed by entry. Tags and fused reporters are not part of them.
UniProt O95817: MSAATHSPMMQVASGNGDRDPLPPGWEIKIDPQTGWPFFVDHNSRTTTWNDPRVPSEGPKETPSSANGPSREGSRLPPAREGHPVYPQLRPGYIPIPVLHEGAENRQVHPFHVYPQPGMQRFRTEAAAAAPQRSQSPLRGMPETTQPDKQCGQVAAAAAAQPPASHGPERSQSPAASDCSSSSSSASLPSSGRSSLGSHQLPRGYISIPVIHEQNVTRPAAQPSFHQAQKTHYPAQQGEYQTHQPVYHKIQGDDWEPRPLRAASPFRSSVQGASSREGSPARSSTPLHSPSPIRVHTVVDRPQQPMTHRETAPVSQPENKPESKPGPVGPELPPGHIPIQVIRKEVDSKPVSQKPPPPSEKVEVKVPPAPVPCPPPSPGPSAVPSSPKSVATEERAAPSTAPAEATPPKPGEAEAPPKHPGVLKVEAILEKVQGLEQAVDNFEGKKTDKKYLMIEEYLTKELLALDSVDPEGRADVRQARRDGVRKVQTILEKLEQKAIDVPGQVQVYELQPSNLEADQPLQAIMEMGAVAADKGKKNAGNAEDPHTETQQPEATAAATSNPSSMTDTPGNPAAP
UniProt Q14315: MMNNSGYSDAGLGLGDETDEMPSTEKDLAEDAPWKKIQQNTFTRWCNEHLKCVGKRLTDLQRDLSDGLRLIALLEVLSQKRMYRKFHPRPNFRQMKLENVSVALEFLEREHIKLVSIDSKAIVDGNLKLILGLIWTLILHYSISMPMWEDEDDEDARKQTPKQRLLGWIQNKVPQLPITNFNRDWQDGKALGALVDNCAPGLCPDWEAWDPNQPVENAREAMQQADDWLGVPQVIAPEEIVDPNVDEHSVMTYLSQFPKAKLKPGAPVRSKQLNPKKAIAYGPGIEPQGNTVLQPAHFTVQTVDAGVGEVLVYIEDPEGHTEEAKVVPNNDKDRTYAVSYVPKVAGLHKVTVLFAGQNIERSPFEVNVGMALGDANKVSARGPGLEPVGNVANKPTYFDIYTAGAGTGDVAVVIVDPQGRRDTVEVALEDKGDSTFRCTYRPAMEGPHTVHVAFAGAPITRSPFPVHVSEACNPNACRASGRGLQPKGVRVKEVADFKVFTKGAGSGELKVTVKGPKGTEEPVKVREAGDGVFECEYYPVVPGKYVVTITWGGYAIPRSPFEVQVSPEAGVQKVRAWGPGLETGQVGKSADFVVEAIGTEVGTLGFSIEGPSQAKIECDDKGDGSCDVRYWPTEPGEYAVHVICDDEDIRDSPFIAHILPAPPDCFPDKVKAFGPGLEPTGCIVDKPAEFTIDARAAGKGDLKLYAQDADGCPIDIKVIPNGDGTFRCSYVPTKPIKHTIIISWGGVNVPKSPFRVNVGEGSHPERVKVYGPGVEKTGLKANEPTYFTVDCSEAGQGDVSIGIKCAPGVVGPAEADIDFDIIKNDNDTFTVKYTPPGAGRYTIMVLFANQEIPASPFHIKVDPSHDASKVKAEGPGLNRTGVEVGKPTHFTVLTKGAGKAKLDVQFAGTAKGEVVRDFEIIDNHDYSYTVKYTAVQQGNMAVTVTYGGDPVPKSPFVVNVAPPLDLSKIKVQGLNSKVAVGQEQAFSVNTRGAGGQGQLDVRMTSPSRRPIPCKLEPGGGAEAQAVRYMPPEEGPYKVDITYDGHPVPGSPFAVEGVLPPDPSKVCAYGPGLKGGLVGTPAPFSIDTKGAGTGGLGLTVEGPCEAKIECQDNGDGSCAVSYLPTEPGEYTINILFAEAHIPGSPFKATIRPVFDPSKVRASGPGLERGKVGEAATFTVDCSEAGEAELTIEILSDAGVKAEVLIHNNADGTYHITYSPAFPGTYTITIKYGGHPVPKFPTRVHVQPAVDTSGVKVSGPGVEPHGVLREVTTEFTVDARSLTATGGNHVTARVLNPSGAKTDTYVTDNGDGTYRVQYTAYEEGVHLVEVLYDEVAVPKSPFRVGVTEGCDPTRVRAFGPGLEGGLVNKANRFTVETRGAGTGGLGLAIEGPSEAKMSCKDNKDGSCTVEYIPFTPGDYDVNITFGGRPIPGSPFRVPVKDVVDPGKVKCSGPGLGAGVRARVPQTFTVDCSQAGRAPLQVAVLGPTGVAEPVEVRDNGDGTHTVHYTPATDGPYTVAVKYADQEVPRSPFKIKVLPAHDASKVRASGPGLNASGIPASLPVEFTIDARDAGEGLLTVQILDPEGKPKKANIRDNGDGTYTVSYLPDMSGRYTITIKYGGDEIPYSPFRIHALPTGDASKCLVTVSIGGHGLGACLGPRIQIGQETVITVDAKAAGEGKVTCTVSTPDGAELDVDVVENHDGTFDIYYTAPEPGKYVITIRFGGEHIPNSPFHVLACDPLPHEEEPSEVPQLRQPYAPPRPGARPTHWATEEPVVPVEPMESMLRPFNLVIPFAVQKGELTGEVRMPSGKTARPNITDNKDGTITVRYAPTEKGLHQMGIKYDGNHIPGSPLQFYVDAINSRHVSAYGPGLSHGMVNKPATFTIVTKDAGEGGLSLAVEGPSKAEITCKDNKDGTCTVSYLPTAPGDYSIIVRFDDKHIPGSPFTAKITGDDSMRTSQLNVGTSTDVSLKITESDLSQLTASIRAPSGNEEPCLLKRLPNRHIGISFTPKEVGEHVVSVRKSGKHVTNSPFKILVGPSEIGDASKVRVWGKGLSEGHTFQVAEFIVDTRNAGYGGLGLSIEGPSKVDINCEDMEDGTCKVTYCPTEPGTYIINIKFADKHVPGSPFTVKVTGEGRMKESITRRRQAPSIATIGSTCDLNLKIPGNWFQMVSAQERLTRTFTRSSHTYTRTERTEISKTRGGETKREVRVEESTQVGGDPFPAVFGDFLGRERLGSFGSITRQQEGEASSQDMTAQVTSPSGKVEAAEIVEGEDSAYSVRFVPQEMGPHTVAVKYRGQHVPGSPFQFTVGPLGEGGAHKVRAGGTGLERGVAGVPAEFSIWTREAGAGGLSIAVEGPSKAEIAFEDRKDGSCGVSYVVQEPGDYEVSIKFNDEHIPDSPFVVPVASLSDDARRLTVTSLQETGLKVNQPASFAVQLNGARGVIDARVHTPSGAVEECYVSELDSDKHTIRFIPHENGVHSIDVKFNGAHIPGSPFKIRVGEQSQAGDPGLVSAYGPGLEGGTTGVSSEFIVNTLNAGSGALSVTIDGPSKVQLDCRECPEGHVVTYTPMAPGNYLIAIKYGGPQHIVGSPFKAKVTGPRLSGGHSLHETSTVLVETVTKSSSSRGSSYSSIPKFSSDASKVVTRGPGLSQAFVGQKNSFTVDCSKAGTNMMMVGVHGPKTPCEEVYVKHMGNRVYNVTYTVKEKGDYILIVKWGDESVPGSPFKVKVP

[2] = target: Bcl2-associated athanogene 3 (BAG3) (human (endogenous in left ventricle tissue)) (UniProt O95817)
[3] = target: HSP70 (human (endogenous in left ventricle tissue))
[4] = target: Bcl2-associated athanogene 3 (BAG3) (human (endogenous in left ventricle tissue)) (UniProt O95817); remark: listed apart in the source

## Bcl2-associated athanogene 3 (BAG3) (from UniProt O95817 1-575)
[1]
  binding: binds

## HSP70
[1]
  binding: binds

## filamin-C (from UniProt Q14315 1-2725)
[1]
  binding: binds
[2]
  binding: binds

B1: HSPB8 (protein, UniProt Q9UJY1 1-196)
chain: T1 sequence
[3]
  binding: binds
[4]
  binding: binds
